Consider 6 molecules from article PMC9233711, “Wiskott-Aldrich syndrome protein forms nuclear condensates and regulates alternative splicing” (Nature Communications, 2022).

Chains of the proteins cited; added tags and fusions are not shown.
UniProt P42768: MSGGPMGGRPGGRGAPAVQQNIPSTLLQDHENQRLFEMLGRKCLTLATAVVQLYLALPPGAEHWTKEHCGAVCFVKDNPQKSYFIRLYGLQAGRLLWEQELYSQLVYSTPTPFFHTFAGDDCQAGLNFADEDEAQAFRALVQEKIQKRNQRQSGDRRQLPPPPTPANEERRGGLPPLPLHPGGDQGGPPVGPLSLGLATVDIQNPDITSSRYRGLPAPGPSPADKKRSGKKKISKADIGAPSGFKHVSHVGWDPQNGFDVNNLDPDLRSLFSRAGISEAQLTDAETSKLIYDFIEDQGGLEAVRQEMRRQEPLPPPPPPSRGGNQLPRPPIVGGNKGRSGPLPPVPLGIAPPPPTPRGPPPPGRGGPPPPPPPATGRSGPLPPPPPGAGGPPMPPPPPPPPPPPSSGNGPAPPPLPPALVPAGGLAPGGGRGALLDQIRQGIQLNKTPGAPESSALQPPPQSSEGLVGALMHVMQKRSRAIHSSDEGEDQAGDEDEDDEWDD
UniProt Q99459: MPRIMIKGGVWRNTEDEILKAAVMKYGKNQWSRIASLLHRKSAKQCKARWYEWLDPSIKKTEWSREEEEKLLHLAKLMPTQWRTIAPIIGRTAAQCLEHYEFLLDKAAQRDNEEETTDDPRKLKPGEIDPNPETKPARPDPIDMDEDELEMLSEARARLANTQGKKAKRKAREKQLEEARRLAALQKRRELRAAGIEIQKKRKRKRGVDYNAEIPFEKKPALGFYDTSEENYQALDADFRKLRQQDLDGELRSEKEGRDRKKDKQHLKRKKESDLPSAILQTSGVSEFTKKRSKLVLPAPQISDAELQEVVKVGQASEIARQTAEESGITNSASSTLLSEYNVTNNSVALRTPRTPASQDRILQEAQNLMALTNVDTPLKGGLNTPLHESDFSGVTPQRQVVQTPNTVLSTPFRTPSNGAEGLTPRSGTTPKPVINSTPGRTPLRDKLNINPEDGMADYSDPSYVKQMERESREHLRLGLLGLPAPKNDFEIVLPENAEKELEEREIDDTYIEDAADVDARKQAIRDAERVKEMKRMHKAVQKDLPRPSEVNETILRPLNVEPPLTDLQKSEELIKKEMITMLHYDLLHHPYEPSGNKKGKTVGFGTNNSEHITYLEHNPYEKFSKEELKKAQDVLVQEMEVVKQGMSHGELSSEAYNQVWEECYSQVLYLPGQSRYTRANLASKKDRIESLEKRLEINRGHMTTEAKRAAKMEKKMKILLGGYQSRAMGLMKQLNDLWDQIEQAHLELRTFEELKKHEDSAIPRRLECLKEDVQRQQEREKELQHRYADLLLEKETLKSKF
UniProt Q15393: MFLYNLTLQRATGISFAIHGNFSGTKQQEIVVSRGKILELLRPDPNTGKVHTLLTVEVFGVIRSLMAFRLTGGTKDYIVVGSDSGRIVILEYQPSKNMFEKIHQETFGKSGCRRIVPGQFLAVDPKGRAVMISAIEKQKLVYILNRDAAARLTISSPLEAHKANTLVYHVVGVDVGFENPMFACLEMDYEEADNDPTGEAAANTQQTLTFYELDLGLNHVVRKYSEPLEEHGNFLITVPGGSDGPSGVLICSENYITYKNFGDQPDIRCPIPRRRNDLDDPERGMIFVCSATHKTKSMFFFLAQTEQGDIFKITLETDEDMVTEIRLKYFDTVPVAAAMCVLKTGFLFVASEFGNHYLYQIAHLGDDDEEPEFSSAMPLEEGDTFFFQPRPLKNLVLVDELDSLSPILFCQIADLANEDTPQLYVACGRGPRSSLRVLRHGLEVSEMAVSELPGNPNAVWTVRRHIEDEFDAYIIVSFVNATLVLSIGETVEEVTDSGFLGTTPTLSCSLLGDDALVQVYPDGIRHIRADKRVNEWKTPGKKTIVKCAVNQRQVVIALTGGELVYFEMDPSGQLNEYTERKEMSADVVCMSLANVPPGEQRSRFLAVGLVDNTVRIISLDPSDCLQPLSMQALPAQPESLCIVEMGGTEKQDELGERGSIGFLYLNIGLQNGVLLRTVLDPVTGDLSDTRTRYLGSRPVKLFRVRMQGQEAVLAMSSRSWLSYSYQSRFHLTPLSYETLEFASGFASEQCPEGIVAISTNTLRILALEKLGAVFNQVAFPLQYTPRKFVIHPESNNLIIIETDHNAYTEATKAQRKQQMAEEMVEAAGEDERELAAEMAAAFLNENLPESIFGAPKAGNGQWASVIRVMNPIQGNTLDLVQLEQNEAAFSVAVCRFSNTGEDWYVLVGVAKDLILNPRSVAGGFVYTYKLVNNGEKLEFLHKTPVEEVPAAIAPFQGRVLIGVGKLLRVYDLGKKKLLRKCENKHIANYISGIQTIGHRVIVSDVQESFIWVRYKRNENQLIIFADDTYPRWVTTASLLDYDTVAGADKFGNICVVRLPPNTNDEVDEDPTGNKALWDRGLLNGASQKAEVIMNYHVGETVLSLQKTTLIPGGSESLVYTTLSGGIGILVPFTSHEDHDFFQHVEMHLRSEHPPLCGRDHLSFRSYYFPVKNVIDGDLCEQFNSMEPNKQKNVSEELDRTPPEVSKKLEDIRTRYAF
UniProt O60264: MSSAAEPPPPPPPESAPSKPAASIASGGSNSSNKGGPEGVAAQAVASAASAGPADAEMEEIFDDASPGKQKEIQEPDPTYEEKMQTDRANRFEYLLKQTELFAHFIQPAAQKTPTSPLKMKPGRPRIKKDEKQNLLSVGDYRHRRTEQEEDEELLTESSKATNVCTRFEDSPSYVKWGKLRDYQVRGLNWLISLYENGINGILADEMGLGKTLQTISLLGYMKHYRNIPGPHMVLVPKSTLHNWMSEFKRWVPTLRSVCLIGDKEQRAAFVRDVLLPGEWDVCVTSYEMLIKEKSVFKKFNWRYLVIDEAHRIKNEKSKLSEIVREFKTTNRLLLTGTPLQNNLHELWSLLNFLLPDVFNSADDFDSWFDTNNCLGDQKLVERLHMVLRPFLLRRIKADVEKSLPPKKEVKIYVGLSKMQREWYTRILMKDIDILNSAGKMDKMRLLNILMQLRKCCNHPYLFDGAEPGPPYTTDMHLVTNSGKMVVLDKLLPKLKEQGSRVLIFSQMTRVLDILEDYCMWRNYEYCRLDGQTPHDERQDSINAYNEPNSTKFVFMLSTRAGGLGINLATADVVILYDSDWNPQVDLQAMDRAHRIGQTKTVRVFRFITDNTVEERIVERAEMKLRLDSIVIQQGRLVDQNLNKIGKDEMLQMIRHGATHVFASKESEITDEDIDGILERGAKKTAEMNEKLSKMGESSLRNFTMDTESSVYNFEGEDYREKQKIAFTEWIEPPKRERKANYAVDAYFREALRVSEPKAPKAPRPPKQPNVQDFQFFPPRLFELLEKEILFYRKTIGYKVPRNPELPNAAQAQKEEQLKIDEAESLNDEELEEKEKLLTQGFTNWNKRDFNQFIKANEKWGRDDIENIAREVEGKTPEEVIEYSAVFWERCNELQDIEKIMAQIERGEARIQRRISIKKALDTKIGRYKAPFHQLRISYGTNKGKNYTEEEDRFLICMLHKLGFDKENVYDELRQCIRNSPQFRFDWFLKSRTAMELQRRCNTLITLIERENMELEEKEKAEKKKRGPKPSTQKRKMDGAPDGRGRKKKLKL
UniProt P08670: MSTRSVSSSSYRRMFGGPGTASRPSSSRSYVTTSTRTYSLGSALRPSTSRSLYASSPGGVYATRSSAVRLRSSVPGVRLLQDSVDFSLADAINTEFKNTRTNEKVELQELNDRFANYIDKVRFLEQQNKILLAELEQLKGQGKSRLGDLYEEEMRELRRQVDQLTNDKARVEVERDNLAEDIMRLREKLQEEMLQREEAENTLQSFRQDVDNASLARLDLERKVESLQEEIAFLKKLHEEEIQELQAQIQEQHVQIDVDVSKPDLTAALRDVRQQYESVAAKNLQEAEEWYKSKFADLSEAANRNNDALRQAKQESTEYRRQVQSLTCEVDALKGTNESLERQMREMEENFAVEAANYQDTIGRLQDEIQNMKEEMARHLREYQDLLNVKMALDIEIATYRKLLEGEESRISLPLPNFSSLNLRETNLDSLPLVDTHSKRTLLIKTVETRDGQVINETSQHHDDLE
UniProt O43516: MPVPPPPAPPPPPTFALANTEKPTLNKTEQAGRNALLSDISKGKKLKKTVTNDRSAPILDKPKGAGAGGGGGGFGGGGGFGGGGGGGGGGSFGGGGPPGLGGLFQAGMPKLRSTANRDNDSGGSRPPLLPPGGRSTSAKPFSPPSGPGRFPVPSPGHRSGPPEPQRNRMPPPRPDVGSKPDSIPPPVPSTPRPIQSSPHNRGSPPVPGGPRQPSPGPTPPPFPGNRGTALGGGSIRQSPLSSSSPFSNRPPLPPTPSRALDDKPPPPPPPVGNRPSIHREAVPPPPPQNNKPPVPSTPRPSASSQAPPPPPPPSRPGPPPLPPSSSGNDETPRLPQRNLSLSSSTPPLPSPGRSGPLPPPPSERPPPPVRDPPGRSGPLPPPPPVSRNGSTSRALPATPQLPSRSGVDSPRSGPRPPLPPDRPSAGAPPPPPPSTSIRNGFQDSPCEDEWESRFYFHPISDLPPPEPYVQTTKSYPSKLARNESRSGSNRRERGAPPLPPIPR

B1: SRSF2, endogenous (protein, UniProt Q01130 1-221)
chain: MSYGRPPPDVEGMTSLKVDNLTYRTSPDTLRRVFEKYGRVGDVYIPRDRYTKESRGFAFVRFHDKRDAEDAMDAMDGAVLDGRELRVQMARYGRPPDSHHSRRGPPPRRYGGGGYGRRSRSPRRRRRSRSRSRSRSRSRSRSRYSRSKSRSRTRSRSRSTSKSRSARRSKSKSSSVSRSRSRSRSRSRSRSPPPVSKRESKSRSRSKSPPKSPEEEGAVSS

These are yes or no findings as the source states them, for the method shown. In cells and extracts the contact can be indirect. A yes stands for co-enrichment or nearness to the bait. Other partners may have been found.

The target of this assay is Wiskott-Aldrich syndrome protein (WASP), endogenous (human (endogenous in B lymphoblastoid cell lines)) (UniProt P42768). The assay is described as follows: affinity purification with mass spectrometry; co-IP of endogenous WASP with two monoclonal antibodies from wild-type B lymphoblastoid cell lines, whole cells and purified nuclei; MudPIT; peptides found in IgG co-IP or in WAS-null B cells filtered out.
In the case of CDC5L (from UniProt Q99459 1-802), the binding result is given as “binds”.
Consider “SF3B3 (also known as SAP130), endogenous (from UniProt Q15393 1-1217)”, for which the binding result was “binds”.
SMARCA5 (from UniProt O60264 1-1052): the binding entry is “binds”.
For VIM (from UniProt P08670 1-466), the binding result is reported as “binds”.
Turning to WIPF1 (from UniProt O43516 1-503), the binding entry is “binds”.
As to B1, the binding entry is listed as “binds”.
